Measurements published in patent US20070009571A1, “Novel haptotactic peptides” (Hadasit Medical Research Services & Development Ltd., priority 1998, published 2007).
Some of these results come from one statement about several compounds together.

B1: Aα1: isolated constituent chain of fibrinogen released upon activation by thrombin (protein, UniProt P02671 36-866, looked up)
Fibrinogen alpha chain: GPRVVERHQSACKDSDWPFCSDEDWNYKCPSGCRMKGLIDEVNQDFTNRINKLKNSLFEYQKNNKDSHSLTTNIMEILRGDFSSANNRDNTYNRVSEDLRSRIEVLKRKVIEKVQHIQLLQKNVRAQLVDMKRLEVDIDIKIRSCRGSCSRALAREVDLKDYEDQQKQLEQVIAKDLLPSRDRQHLPLIKMKPVPDLVPGNFKSQLQKVPPEWKALTDMPQMRMELERPGGNEITRGGSTSYGTGSETESPRNPSSAGSWNSGSSGPGSTGNRNPGSSGTGGTATWKPGSSGPGSTGSWNSGSSGTGSTGNQNPGSPRPGSTGTWNPGSSERGSAGHWTSESSVSGSTGQWHSESGSFRPDSPGSGNARPNNPDWGTFEEVSGNVSPGTRREYHTEKLVTSKGDKELRTGKEKVTSGSTTTTRRSCSKTVTKTVIGPDGHKEVTKEVVTSEDGSDCPEAMDLGTLSGIGTLDGFRHRHPDEAAFFDTASTGKTFPGFFSPMLGEFVSETESRGSESGIFTNTKESSSHHPGIAEFPSRGKSSSYSKQFTSSTSYNRGDSTFESKSYKMADEAGSEADHEGTHSTKRGHAKSRPVRDCDDVLQTHPSGTQSGIFNIKLPGSSKIFSVYCDQETSLGGWLLIQQRMDGSLNFNRTWQDYKRGFGSLNDEGEGEFWLGNDYLHLLTQRGSVLRVELEDWAGNEAYAEYHFRVGSEAEGYALQVSSYEGTAGDALIEGSVEEGAEYTSHNNMQFSTFDRDADQWEENCAEVYGGGWWYNNCQAANLNGIYYPGGSYDPRNNSPYEIENGVVWVSFRGADYSLRAVRMKIRPLVTQ
modifications: Fibrinogen alpha chain
B2: Aα2: isolated constituent chain of fibrinogen released upon activation by thrombin (protein, UniProt P02671 36-866, looked up)
Fibrinogen alpha chain: B1 Fibrinogen alpha chain
modifications: Fibrinogen alpha chain

Key:
EC cells (BAEC) = test: FACS analysis of binding of FITC-labeled peptides; assay type: cell-based, bovine
Protocol: (§1) EC and HF cell monolayers were washed and then incubated with trypsin-versene. Cells were then washed with growth medium and resuspended in medium with 0.1% albumin. FITC-labeled peptide-Cβ (SEQ ID NO:1) was incubated with 5×10^5 EC cells (10 μg/ml or 100 μg/ml) or with 2.5×10^5 HF cells (100 μg/ml) in medium with 0.1% albumin. FITC-labeled peptide-CαE (SEQ ID NO:3) and Cα (SEQ ID NO:4) (10 μg/ml) was incubated with 5×10^5 EC cells in medium with 0.1% albumin. Cells were then washed with PBS and 1% albumin. Cells were resuspended in PBS and 1% albumin and then filtered through a mesh for FACS analysis, in which the FITC tluorescence was measured for each cell.
(§2) The control is without FITC-labeled peptide (background fluorescence).
(§3) In competition experiments, cells were incubated with various concentrations of unlabeled Cβ (SEQ ID NO:1) for 15 mins, an aliquot of Cβ^FITC (4 mM) was added and the sample was subjected to FACS analysis. […] The Cβ^FITC (SEQ ID NO:1) uptake experiments best fitted a linear-quadratic curve-fit.

HF cells = test: FACS analysis of binding of FITC-labeled peptides; assay type: cell-based, human
Protocol: as §1, §2, §3

human fibroblasts = settings: isolated constituent chains of fibrinogen; Gray et al. 1993; cited from earlier work

| Molecule | time to maximum / equilibrium of binding of FITC-peptide (FACS kinetics) (EC cells (BAEC)) [min] | time to maximum / equilibrium of binding of FITC-peptide (FACS kinetics) (HF cells) [min] | stimulation of fibroblast proliferation above controls (human fibroblasts) |
| --- | --- | --- | --- |
| FITC-CαE: FITC-labeled peptide CαE (SEQ ID NO:3) (RGADYSLRAVRMKIRPLVTQ; FITC label; Equivalent to the c-erminus of fibrinogen alpha-E-chain) | ≤ 5 | ≤ 5 |  |
| KGSWYSMRKMSMKIRPFFPQQ (Equivalent to the c-terminus of fibrinogen beta-chain) [Cβ, haptotactic peptide homologous to the carboxy terminus of the fibrinogen β chain, β 441-461] | 2 to 5 | 2 to 5 |  |
| RGADYSLRAVRMKIRPLVTQ (Equivalent to the c-erminus of fibrinogen alpha-E-chain) [CαE, haptotactic peptide homologous to the C-terminus of the fibrinogen αE chain, αE 828-847] | 2 to 5 | 2 to 5 |  |
| B1 |  |  | 23-31% |
| B2 |  |  | 23-31% |
